According to patent publication US20230340142A1 (SUZHOU NEOLOGICS BIOSCIENCE, published 2023):
No constants are given. Whether binding was seen depends on the method and setting. Some results given as binding are weak or reduced against the parent protein; the word gives no strength.

The chains behind the UniProt entries cited, without tags or fusion partners. Where a name states a change or a piece, a line headed by the entry shows the natural chain unless it says otherwise.
UniProt Q9NZQ7: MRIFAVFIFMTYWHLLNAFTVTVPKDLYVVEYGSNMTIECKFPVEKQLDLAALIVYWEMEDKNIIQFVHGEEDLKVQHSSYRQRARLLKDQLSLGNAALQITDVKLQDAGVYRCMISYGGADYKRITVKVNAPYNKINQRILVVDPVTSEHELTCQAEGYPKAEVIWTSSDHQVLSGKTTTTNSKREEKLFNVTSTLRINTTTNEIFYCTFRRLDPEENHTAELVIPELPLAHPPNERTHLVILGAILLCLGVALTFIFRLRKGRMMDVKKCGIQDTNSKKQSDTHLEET

Tests used:
human PD-L1 [1] = target: T1, human PD-L1 (human, UniProt Q9NZQ7 19-238, limits assumed); test: flow cytometry on MDA-MB-231 cells (PD-L1 on the cell surface), PE-labelled secondary antibody, MFI
T1 construct: also called hPD-L1
Experimental: (§1) Glycosylation differences in cancer cell lines of different tissue origin may affect the binding affinity between PD-L1 antibody and PD-L1. In this study, five cell lines were selected, namely BT20(Breast), mb-231 (Breast), A375(Melanoma), HCC827(Lung), and RKO(Colon). Cells were re-suspended with FACS buffer (1%BSA in PBS), and 50 µl cell suspension per well was added to the 96-well U-bottom plate (Corning, catalog#3795). The purified antibody to be tested was diluted in gradient, then 50 µl was added to each well and incubated at 4° C. for 1 hour. After washing by FACS buffer for three times, the cells were incubated with PE-labeled fluorescent secondary antibody and incubated at 4° C. for half an hour. Cells were washed three times with FACS buffer and resuspended to 200 uL/ well. The fluorescence signal was detected using Canto II flow cytometry (BD).

human PD-L1 [2] = target: T1, human PD-L1; test: flow cytometry on HCC827 cells (PD-L1 on the cell surface), PE-labelled secondary antibody, MFI
Experimental: as §1

human PD-L1 [3] = target: T1, human PD-L1; test: flow cytometry on RKO cells (PD-L1 on the cell surface), PE-labelled secondary antibody, MFI
Experimental: as §1

human PD-L1 [4] = target: T1, human PD-L1; test: flow cytometry on A375 cells (PD-L1 on the cell surface), PE-labelled secondary antibody, MFI
human PD-L1 [5] = target: T1, human PD-L1; test: flow cytometry on BT20 cells (PD-L1 on the cell surface), PE-labelled secondary antibody, MFI
Experimental: as §1

binding (human PD-L1 [1]) | binding (human PD-L1 [2]) | binding (human PD-L1 [3]) | binding (human PD-L1 [4]) | binding (human PD-L1 [5]) | Binder
binds | binds | binds | binds | binds | Clone C (antibody, V domains shown, Mouse hybridoma clone) VH: EVQLQQSGADLVKPGASVKLSCTASGFNIKDTYMHWVKQRPEQGLEWIGRIDPANGNTKYDPKFQGKATITTDTSSNTAYLQLSSLTSEDTAVYYCARGLGRWFAYWGQGTLVTVSA VL: DIVMTQSHKFMSTSVGDRVSITCKASQDVSNAVAWYQQKPGQSPELLIYSASNRYTGVPDRFTGSGSGTDFTFTISSVQAEDLAVYYCQQHDSTPLTFGAGTKLELK
binds | binds | binds | binds | binds | Clone N (antibody, V domains shown, Mouse hybridoma clone) VH: EVQLQQSGPELVKPGASMKISCKASGYSFTGYTMNWVKQSHGKNLEWIGLIIPHNGGTSYNQKFKDKATLTVDKSSRTAYMELLSLTSEDSAVYYCASLMTTAPRDSMDYWGQGTSVTVSS VL: DIQMTQTTSSLSASLGDRVTISCRASQDISNYLNWYQQKPDGTVKLLIYYTSRLHSGVPSRFSGSGSGTDYSLTISNLDQEDIATYFCQQGATLPWTFGGGTKLEIK

Further lines, the binder ahead of its results:

Binder | binding (human PD-L1 [1]) | binding (human PD-L1 [2]) | binding (human PD-L1 [3]) | binding (human PD-L1 [4]) | binding (human PD-L1 [5])
Clone B (antibody, V domains shown, Mouse hybridoma clone) VH: QGQMQQSGAELVKPGASVKLSCKTSGFTFSSSYISWLKQKPGQSLEWIAWIYAGTGGTSYNQKFTGKAQLTVDTPSSTAYMQFSSLTTEDSAIYYCARHEGKYWYFDVWGAGTTVTVSS VL: QILLTQSPAIMSASPGEKVTMTCSASSSVSYVHWYQQKPGSSPKPWIYDTSNLASGFPARFSGSGSGTSYSLIISSMEAEDAATYYCHQRSSYPWTFGGGTKLEIK | binds | binds | binds | binds | binds
Clone D (antibody, V domains shown, Mouse hybridoma clone) VH: EVQLQQSGPELVKPGASMKISCKASGYSFTGYTMNWVKQSHGKNLEWIGLIIPYNGGISYNQKFKDKATLTVDKSSSTAYMELLSLTSEDSAVYYCASLITTAPRDSMDYWGQGTSVTVSS VL: DIQMTQTTSSLSASLGDRVTISCRASQDISNYLNWYQQKPDGSVKLLIYYTSKLHSGVPSRFSGSGSGTDYSLTISNLEQEDIATYFCQQGDALPWTFGGGTKLEIK | binds | binds | binds | binds | binds
